Assay results from PMC11811201.
Positions count from the first letter of the chain named. Numbers in names are those of the source. No constants are given. Whether binding was seen depends on the method and setting. Binding seen in cells or lysates may run through a third protein. For some of these results: A result given as binding can be weak or reduced; the word gives no strength. Where a sequence is shown, tags or fusion partners need not be part of it. Values belong to the binder of their own block, whether it stands above or below them.

Tests used:
[1] = target: Flag-tagged pocket mutant Xenopus cyclin B3 (IVT) (Xenopus laevis); assay: co-IP; α-Flag IP of IVT Flag-cycB3^WT/PM from CSF extract with IVT Myc-XErp1^s variants, arrested with Myc-XErp1^CT (aa 491–651, T545A, T551A) and MG262 (100 µM); 30 min at RT; IP samples treated with λ-phosphatase; Western blot
[2] = target: Flag-tagged wildtype Xenopus cyclin B3 (IVT) (Xenopus laevis); assay: as above

binding [1]: no binding | binding [2]: binds
B1: Myc-tagged full-length stable XErp1 (XErp1^s WT) (protein, UniProt Q8AXF4 1-651)
chain: MANLLENFAAHHSMTAGAKKKADHQDTSVSQDNGYSDNLKGFSPDSHKSGNFLETVTEGYENSENIDPTLILSPIKYELSWGADTRESKQLAPLYETPRVGKKEFSLRRRLLISKATSGGNLDFDVSVCSAESCGREKSLRRIPSHEGSLSNSFADSPRDGSYEPIATSTLKTESESGTSCKKWRLSFAQQRSSTLDDSKSDSIPLPEVENISPVQHSLASSTDDSILYEETIFGAPTTPTCNFIVKEEFQTPISNLAANFRFNLCTPDVGHVSDFDISVTEDNAFHNLSLDKSQDSITDHEGSFQELIQKPRETSKAVNNKSRLRKLDRCRRLSTLRERGSQSEVEEEGNEVPVLSSAYKLKVARASVDEENEFSSDESRVHSLLSSDDLTGKPALRVLHEMLLRSTRKRPQQATVQDLLGSSGCFELPEDSLSRLIGRKMGLETFDILAELKNRNLKHILASILDLVNAASICSMCRVSRDWRDVVLQDKSAHQRRKAYIKKLKTEAEQGRQLSFEDSATRLNILSRSALRSVQIQARSAFRTPTSSLTPGDNKSIHSASKHQEYLKVAKTLFTDEALKPCPRCQYPAKYQALKKRGTCSRKDCGFDFCSLCLCTFHGSKECGTGSAKRIPKKEALPGSAQSKRNLKRL

binding [2]: no binding
B2: Myc-tagged full-length stable XErp1 3RA (XErp1^s 3RA) (protein, UniProt Q8AXF4 1-651)
chain: B1 chain with R108A, R109A, R110A

binding [2]: no binding
B3: Myc-tagged full-length stable XErp1 T97A (XErp1^s T97A) (protein, UniProt Q8AXF4 1-651)
chain: B1 chain with T97A
